Source: article PMC6153955
No constants are given. Whether binding was seen depends on the method and setting. Some binding calls cover weakened binding; strength is not graded here.

Target: full length FIBCD1 expressed in A549 cells (human) (UniProt Q8N539)
Assay: SDS-PAGE and Western blot; lysate of sham- and FIBCD1-transfected A549 cells under reducing and non-reducing conditions, probed with anti-FIBCD1 mAb HG-HYB 12-2

binding: binds
B1: full length FIBCD1 expressed in A549 cells (receptor, UniProt Q8N539 1-461)
chain: MVNDRWKTMGGAAQLEDRPRDKPQRPSCGYVLCTVLLALAVLLAVAVTGAVLFLNHAHAPGTAPPPVVSTGAASANSALVTVERADSSHLSILIDPRCPDLTDSFARLESAQASVLQALTEHQAQPRLVGDQEQELLDTLADQLPRLLARASELQTECMGLRKGHGTLGQGLSALQSEQGRLIQLLSESQGHMAHLVNSVSDILDALQRDRGLGRPRNKADLQRAPARGTRPRGCATGSRPRDCLDVLLSGQQDDGVYSVFPTHYPAGFQVYCDMRTDGGGWTVFQRREDGSVNFFRGWDAYRDGFGRLTGEHWLGLKRIHALTTQAAYELHVDLEDFENGTAYARYGSFGVGLFSVDPEEDGYPLTVADYSGTAGDSLLKHSGMRFTTKDRDSDHSENNCAAFYRGAWWYRNCHTSNLNGQYLRGAHASYADGVEWSSWTGWQYSLKFSEMKIRPVREDR
